Results on 3 molecules are retold here after paper PMC7794802, “The Interactome of Cancer-Related Lysyl Oxidase and Lysyl Oxidase-Like Proteins” (Cancers, 2020).

The chains behind the UniProt entries cited, without tags or fusion partners. Where a name states a change or a piece, a line headed by the entry shows the natural chain unless it says otherwise.
UniProt P39060: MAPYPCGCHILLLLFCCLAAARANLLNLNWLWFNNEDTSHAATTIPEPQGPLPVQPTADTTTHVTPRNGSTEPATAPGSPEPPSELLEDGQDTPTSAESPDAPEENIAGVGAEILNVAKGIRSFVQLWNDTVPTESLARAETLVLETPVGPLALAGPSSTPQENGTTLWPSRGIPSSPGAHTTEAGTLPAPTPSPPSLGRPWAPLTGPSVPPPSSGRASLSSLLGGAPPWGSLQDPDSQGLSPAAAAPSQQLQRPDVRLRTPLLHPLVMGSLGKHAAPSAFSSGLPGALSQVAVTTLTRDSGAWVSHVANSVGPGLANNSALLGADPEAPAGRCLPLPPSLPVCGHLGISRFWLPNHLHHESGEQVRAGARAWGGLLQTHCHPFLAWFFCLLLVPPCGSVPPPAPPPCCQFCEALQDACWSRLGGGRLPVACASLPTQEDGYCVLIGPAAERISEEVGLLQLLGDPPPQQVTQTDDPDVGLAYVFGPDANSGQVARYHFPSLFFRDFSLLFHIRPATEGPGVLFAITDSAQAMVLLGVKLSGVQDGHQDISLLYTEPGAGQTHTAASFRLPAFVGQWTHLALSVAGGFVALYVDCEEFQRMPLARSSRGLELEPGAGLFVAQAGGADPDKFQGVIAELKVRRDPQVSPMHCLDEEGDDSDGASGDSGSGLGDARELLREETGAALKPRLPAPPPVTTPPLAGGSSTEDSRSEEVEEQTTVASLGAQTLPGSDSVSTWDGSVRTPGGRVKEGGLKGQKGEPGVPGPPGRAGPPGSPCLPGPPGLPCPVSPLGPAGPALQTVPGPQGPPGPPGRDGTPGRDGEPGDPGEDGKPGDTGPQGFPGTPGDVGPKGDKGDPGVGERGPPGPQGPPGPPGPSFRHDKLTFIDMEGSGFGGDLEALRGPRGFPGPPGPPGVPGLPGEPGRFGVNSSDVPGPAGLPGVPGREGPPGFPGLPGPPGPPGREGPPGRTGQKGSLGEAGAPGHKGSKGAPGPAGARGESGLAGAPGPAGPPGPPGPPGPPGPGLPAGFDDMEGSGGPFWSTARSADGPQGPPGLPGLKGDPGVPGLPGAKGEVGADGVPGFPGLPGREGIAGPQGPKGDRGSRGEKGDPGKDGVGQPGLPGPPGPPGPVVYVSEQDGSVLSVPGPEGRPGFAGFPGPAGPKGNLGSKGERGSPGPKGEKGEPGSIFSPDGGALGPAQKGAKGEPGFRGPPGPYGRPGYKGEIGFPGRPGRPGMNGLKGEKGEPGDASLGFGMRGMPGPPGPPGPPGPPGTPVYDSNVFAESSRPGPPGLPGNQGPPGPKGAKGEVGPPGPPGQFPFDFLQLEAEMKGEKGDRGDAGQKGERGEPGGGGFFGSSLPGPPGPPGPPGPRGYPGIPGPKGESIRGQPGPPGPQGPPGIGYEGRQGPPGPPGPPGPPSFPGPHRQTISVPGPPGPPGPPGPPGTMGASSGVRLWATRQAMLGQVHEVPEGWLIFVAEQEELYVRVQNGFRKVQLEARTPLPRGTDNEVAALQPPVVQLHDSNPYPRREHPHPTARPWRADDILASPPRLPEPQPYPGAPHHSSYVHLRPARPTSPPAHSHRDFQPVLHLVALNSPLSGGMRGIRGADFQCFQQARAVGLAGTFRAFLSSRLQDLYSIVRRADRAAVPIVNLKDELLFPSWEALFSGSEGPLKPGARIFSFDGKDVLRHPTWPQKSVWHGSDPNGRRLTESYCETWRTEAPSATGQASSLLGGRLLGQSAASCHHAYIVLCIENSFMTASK
UniProt P09038: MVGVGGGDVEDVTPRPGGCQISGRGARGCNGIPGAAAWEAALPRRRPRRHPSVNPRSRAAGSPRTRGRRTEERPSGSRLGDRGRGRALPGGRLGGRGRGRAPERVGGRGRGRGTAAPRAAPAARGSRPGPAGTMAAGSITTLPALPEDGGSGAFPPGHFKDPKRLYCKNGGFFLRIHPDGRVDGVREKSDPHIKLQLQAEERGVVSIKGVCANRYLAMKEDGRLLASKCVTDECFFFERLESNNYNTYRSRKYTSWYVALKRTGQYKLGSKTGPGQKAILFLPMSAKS

Assay [1] has as its target C-terminal NC1 domain of collagen XVIII (UniProt P39060). The experiment in a line: SPR; SPR imaging, BIAcore Flexchip; proteins spotted in triplicate (physically adsorbed) on Gold Affinity chips, blocked with buffer containing mammalian proteins; LOXL2, SRCR 1-2 and SRCR 1-4 (500 nM) recirculated over the arrays for 20 min; both purified.
The target of assay [2] is fibroblast growth factor-2 (FGF2) (UniProt P09038). The description is as above.

Results are given in words; binding and its absence hold for the method and conditions named. Binding can be weak; no strength is given.

As for “LOXL2 N-terminal scavenger receptor cysteine-rich domains SRCR 1-4 (residues 58-544) (from UniProt Q9Y4K0 58-544) (domain or fragment)”, in assay [1], the binding entry was “binds”.

B1: LOXL2 N-terminal scavenger receptor cysteine-rich domains SRCR 1-2 (residues 58-302) (domain or fragment, UniProt Q9Y4K0 58-302, looked up)
chain: LRLAGQKRKHSEGRVEVYYDGQWGTVCDDDFSIHAAHVVCRELGYVEAKSWTASSSYGKGEGPIWLDNLHCTGNEATLAACTSNGWGVTDCKHTEDVGVVCSDKRIPGFKFDNSLINQIENLNIQVEDIRIRAILSTYRKRTPVMEGYVEVKEGKTWKQICDKHWTAKNSRVVCGMFGFPGERTYNTKVYKMFASRRKQRYWPFSMDCTGTEAHISSCKLGPQVSLDPMKNVTCENGLPAVVSCV
notes: LOXL2, SRCR domains 1-2, residues 58-302; also called SRCR 1-2 domain; source: expressed as recombinant protein as previously described [62]
Consider B1, for which the binding entry in assay [1] is given as “binds”.

B2: lysyl oxidase-like 2 (LOXL2), full-length recombinant protein (enzyme, UniProt Q9Y4K0 26-774, looked up)
chain: QYDSWPHYPEYFQQPAPEYHQPQAPANVAKIQLRLAGQKRKHSEGRVEVYYDGQWGTVCDDDFSIHAAHVVCRELGYVEAKSWTASSSYGKGEGPIWLDNLHCTGNEATLAACTSNGWGVTDCKHTEDVGVVCSDKRIPGFKFDNSLINQIENLNIQVEDIRIRAILSTYRKRTPVMEGYVEVKEGKTWKQICDKHWTAKNSRVVCGMFGFPGERTYNTKVYKMFASRRKQRYWPFSMDCTGTEAHISSCKLGPQVSLDPMKNVTCENGLPAVVSCVPGQVFSPDGPSRFRKAYKPEQPLVRLRGGAYIGEGRVEVLKNGEWGTVCDDKWDLVSASVVCRELGFGSAKEAVTGSRLGQGIGPIHLNEIQCTGNEKSIIDCKFNAESQGCNHEEDAGVRCNTPAMGLQKKLRLNGGRNPYEGRVEVLVERNGSLVWGMVCGQNWGIVEAMVVCRQLGLGFASNAFQETWYWHGDVNSNKVVMSGVKCSGTELSLAHCRHDGEDVACPQGGVQYGAGVACSETAPDLVLNAEMVQQTTYLEDRPMFMLQCAMEENCLSASAAQTDPTTGYRRLLRFSSQIHNNGQSDFRPKNGRHAWIWHDCHRHYHSMEVFTHYDLLNLNGTKVAEGHKASFCLEDTECEGDIQKNYECANFGDQGITMGCWDMYRHDIDCQWVDITDVPPGDYLFQVVINPNFEVAESDYSNNIMKCRSRYDGHRIWMYNCHIGGSFSEETEKKFEHFSGLLNNQLSPQ
notes: lysyl oxidase-like 2 (LOXL2), full-length recombinant protein made in the laboratory; As a secreted recombinant protein it probably lacks its signal peptide (surmise); also called full-length LOXL2; soluble LOXL2; source: expressed as recombinant protein as previously described [62]
Turning to B2, the binding entry in assay [1] was “no binding (tested: 500 nM)”; in assay [2], “binds”.
